Experimental data taken from patent publication US20110201109.

Assays:
[1] = target: T1, Ronin (Thap11) (Mus musculus) (UniProt Q9JJD0); test: competition with a labelled probe; settings: protein in an extract, variant of 3x sequence, biotin-labelled probe
T1 sequence (looked up, limits assumed): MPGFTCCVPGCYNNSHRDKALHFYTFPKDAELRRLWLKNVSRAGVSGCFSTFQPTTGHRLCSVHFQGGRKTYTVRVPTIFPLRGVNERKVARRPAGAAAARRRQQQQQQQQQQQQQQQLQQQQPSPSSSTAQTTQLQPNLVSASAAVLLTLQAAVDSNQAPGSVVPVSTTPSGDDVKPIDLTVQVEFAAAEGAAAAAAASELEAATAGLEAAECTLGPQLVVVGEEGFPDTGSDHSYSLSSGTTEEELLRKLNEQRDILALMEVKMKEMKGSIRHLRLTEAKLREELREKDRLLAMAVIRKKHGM

[2] = target: T1, Ronin (Thap11) (Mus musculus); test: EMSA; settings: nuclear extract; complex inhibited by anti-FLAG antibody; protein in an extract; label: 5'-biotin

TGTATTACAAGCTAGGACAGCACCT (double strand) [3x sequence, unlabelled double-stranded competitor]
binding result [1]: binds

TGTATTACAAGCTAGGACAGCACCT [3x sequence, unlabelled single-stranded competitor]
binding result ([1]; unlabelled single-stranded 3x inhibits the gel shift, strand not stated, single-stranded DNA): binds

ATCAACTGTATACAAGCAGCTAGGACAGCACCCTAATGTC (double strand) [3x sequence, biotin-labelled probe]
binding result [2]: binds

Where cells or extracts were used, other partners may take part. Protein sequences can lack the tags named with them.
